Experimental findings from paper PMC8863983 are described below.

Amino acid sequences for entries named in this document (tags omitted).
UniProt O43791: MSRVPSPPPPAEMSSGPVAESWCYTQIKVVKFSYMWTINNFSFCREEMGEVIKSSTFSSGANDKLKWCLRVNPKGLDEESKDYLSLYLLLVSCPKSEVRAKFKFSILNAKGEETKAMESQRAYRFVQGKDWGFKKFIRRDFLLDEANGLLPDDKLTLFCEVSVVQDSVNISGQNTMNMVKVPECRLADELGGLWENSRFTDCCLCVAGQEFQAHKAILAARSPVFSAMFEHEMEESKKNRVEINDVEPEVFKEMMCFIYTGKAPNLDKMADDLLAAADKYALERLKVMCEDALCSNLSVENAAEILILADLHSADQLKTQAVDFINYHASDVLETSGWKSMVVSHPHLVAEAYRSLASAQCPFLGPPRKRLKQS

Results are given in words; binding and its absence hold for the method and conditions named. Binding seen in cells or lysates may run through a third protein. Some results given as binding are weak or reduced against the parent protein; the word gives no strength. For some assays here: Sequences can lack the tags named with a protein.

Assay [1] deals with T1, Myc-DRAK1 (death-associated protein kinase-related apoptosis-inducing kinase 1) (UniProt Q9UEE5).
T1 sequence: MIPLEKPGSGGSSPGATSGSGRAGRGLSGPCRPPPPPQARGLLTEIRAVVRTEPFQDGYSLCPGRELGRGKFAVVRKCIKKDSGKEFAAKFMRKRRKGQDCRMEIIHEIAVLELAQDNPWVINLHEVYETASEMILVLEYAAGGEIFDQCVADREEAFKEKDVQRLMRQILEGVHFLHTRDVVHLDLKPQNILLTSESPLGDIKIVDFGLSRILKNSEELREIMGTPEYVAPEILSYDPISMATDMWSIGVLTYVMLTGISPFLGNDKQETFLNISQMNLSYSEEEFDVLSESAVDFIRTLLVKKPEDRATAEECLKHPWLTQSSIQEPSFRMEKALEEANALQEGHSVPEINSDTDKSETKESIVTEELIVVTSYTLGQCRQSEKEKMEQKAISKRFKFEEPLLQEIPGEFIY
The experiment in a line: co-IP; 293T cells transfected with Myc-DRAK1, HA-CUL3 and Flag-SPOP; lysed after 36 h in IP buffer (50 mM Tris pH 7.4, 150 mM NaCl, 1% Triton X-100, 0.5% sodium deoxycholate, 2 mM EDTA, 10% glycerol); antibody overnight at 4 °C, Dynabeads; immunoblot.

The target in assay [2] is T2, endogenous DRAK1 (human (endogenous in HeLa)) (UniProt Q9UEE5).
T2 sequence: T1 sequence
The experiment in a line: co-IP; endogenous proteins in HeLa and paclitaxel-resistant HeLa/PTX cell lysates; IP buffer, antibody overnight at 4 °C, Dynabeads; immunoblot.

As for “Flag-SPOP (speckle-type POZ protein) (from UniProt O43791 1-374)”, the binding entry in assay [1] is given as “binds”.

On to “endogenous SPOP (from UniProt O43791 1-374)”, for which the binding entry in assay [2] is recorded as “binds”.
